Reference: PubChem BioAssay AID504786 (Drosophila RNAi Screening Center, 2011)

Screen: 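Fly genes required for HIF-dependent transcription when hypoxia is mimicked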 (primary screen)
System: Drosophila S2 cells with a stable HIF luciferase reporter
Knock-down reagent: long dsRNA against Drosophila genes, about 0.2 µg dsRNA per well of a 384-well plate
Timing: three days of knock-down, then 20 h of DFO before reading
Treatment: desferrioxamine (DFO) at 100 µM, an iron chelator that mimics hypoxia, for 20 h
Measurement: 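Firefly luciferase driven by the mouse ldh-a hypoxia-response element, measured after 20 h of 100 µM DFO; z-scores per plate, higher means more signal lost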
Scale: z-score: higher = stronger loss of HIF reporter signal
The deposit covers about 21,000 reagents; this is an unselected part of those with a known target gene and a result. 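Primary screen; positive scores mean lost reporter signal, so the sign may be inverted from the usual convention.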 Not all columns of the deposit are shown.

Knock-down of CG17224 [DRSC00489] resulted in: z-score, replicate 1 = -0.1.
For Dbp73D [DRSC11142], the entry reads z-score, replicate 1 = -0.1.
Against CG12355 [DRSC09381] the deposit lists z-score, replicate 1 = 0.2.
After knock-down of CG12355 [DRSC09883], the screen gave z-score, replicate 1 = -0.2.
Knock-down of EbpII [DRSC04637] came out at: z-score, replicate 1 = -0.2.
With knock-down of CG17217 [DRSC02592], the record shows z-score, replicate 1 = -0.3.
For p115 [DRSC18813] the deposit lists z-score, replicate 1 = -0.4.
After knock-down of CBP [DRSC17746], the record shows z-score, replicate 1 = -0.3.
lilli [DRSC00708] gave z-score, replicate 1 = 1.
CG10383 [DRSC02050] gave z-score, replicate 1 = -0.3.
Depletion of CG5909 [DRSC15914] gave: z-score, replicate 1 = -0.2.
With knock-down of Fpgs1 [DRSC19857] the results were z-score, replicate 1 = -0.2.
For c11.1 [DRSC18749], the values are z-score, replicate 1 = -0.4.
Silencing of CG2861 [DRSC18229] resulted in: z-score, replicate 1 = -0.3.
With knock-down of nrm [DRSC11597], the record shows z-score, replicate 1 = -0.4.
For nrm [DRSC11599], the values are z-score, replicate 1 = -0.4.
nrm [DRSC11897] showed z-score, replicate 1 = -0.2.

Reformatted: 2 of the entries above
CG17217 [DRSC02592]
- z-score, replicate 1: -0.3

p115 [DRSC18813]
- z-score, replicate 1: -0.4
